Experimental data: US12065471B2, “B*44 restricted peptides for use in immunotherapy against cancers and related methods” (Immatics Biotechnologies GmbH, priority 2018, dated 2024)
For some assays here: For expression read-outs the peptide stands for its source gene, whose mRNA was measured; the gene is not named for every peptide.

Columns and labels:
[1] = tested on: source genes (mRNA) in tumor and normal tissues; assay: Expression profiling of genes encoding the peptides (RNAseq); parameters: species or system human; conditions: for Gene Expression in tumor samples: highly over-expressed (++): tumor types in which the peptide's source gene is highly over-expressed compared to a panel of normal tissues (RNAseq); for Gene Expression in tumor samples: over-expressed (+): tumor types in which the peptide's source gene is over-expressed compared to a panel of normal tissues (RNAseq); for Gene Expression in tumor samples: very highly over-expressed (+++): tumor types in which the peptide's source gene is very highly over-expressed compared to a panel of normal tissues (RNAseq)
[2] = tested on: HLA molecules of primary tumor and normal tissue samples; assay: Identification and quantitation of tumor associated peptides presented on the cell surface (HLA immunoprecipitation, label-free LC-MS); parameters: species or system human; conditions: cancer entities on which the peptide was found presented (HLA immunoprecipitation, LC-MS); abbreviations in table footnotes

Substance: 173: peptide found in PTPRZ1 (gene looked up) (SEHSLEGQKF; listed as Homo sapiens) [compound 173]
- Gene Expression in tumor samples: highly over-expressed (++) [1]: GBM

Substance: 254: peptide found in EGFR (gene looked up) (QEVAGYVLI; listed as Homo sapiens) [compound 254]
- Peptide Presentation on cancer entities [2]: NSCLCadeno
- Gene Expression in tumor samples: highly over-expressed (++) [1]: GBM

Substance: 293: peptide found in FERMT1 (gene looked up) (QEDEQLLLRF; listed as Homo sapiens) [compound 293]
- Peptide Presentation on cancer entities [2]: CRC, OSCAR
- Gene Expression in tumor samples: highly over-expressed (++) [1]: CRC
- Gene Expression in tumor samples: over-expressed (+) [1]: GC, HNSCC, NSCLCsquam, OSCAR, UBC

Substance: 22: peptide found in FLT3 (gene looked up) (TEEITEGVW; listed as Homo sapiens) [compound 22]
- Peptide Presentation on cancer entities [2]: AML, CLL, HNSCC, NSCLCadeno
- Gene Expression in tumor samples: very highly over-expressed (+++) [1]: AML

Substance: 67: peptide found in LOXL4 (gene looked up) (TEGAVEVKY; listed as Homo sapiens) [compound 67]
- Peptide Presentation on cancer entities [2]: HCC
- Gene Expression in tumor samples: highly over-expressed (++) [1]: MEL
- Gene Expression in tumor samples: over-expressed (+) [1]: CCC

Substance: 307: peptide found in IL4I1 (gene looked up) (YEQLLKVVTW; listed as Homo sapiens) [compound 307]
- Peptide Presentation on cancer entities [2]: CRC, NHL, UBC, UEC
- Gene Expression in tumor samples: highly over-expressed (++) [1]: NHL
- Gene Expression in tumor samples: over-expressed (+) [1]: GBC, OC, UEC

Substance: 83: peptide found in F5 (gene looked up) (TEGGTQKTF; listed as Homo sapiens) [compound 83]
- Peptide Presentation on cancer entities [2]: CCC, HCC, NHL, OSCAR
- Gene Expression in tumor samples: highly over-expressed (++) [1]: HCC
- Gene Expression in tumor samples: over-expressed (+) [1]: CCC

Substance: 391: peptide found in RXFP1 (gene looked up) (TESIGAQIY; listed as Homo sapiens) [compound 391]
- Gene Expression in tumor samples: over-expressed (+) [1]: UEC

Substance: 114: peptide found in LOXL4 (gene looked up) (VEVNGVPRW; listed as Homo sapiens) [compound 114]
- Gene Expression in tumor samples: highly over-expressed (++) [1]: MEL
- Gene Expression in tumor samples: over-expressed (+) [1]: CCC, OSCAR

Substance: 399: peptide found in HPGDS (gene looked up) (IEQADWPEI; listed as Homo sapiens) [compound 399]
- Peptide Presentation on cancer entities [2]: NSCLCadeno
- Gene Expression in tumor samples: over-expressed (+) [1]: AML

Substance: 403: peptide found in PLD4 (gene looked up) (QESVHVASY; listed as Homo sapiens) [compound 403]
- Peptide Presentation on cancer entities [2]: AML, BRCA, CLL, GBM, NHL, PACA, UEC
- Gene Expression in tumor samples: over-expressed (+) [1]: AML

Substance: 446: peptide found in FOLH1 (gene looked up) (AENIKKFLY; listed as Homo sapiens) [compound 446]
- Peptide Presentation on cancer entities [2]: CRC, HCC, MEL, NSCLCsquam, PRCA, RCC
- Gene Expression in tumor samples: highly over-expressed (++) [1]: PRCA

Substance: 38: peptide found in MMP1 (gene looked up) (DEVRFFKGNKY; listed as Homo sapiens) [compound 38]
- Peptide Presentation on cancer entities [2]: OSCAR
- Gene Expression in tumor samples: highly over-expressed (++) [1]: HNSCC, NSCLCsquam, OSCAR
- Gene Expression in tumor samples: over-expressed (+) [1]: CRC, GC, NSCLCadeno, PACA, UBC

Substance: 392: peptide found in RXFP1 (gene looked up) (TEVSVLLLTF; listed as Homo sapiens) [compound 392]
- Gene Expression in tumor samples: over-expressed (+) [1]: UEC

Substance: 214: peptide found in NPFFR2 (gene looked up) (SVNPIIYGF; listed as Homo sapiens) [compound 214]
- Gene Expression in tumor samples: highly over-expressed (++) [1]: HCC
- Gene Expression in tumor samples: over-expressed (+) [1]: GBC

Substance: 248: peptide found in APOB (gene looked up) (KESQLPTVMDF; listed as Homo sapiens) [compound 248]
- Peptide Presentation on cancer entities [2]: HCC
- Gene Expression in tumor samples: highly over-expressed (++) [1]: HCC

Substance: 103: peptide found in MMP13 (gene looked up) (AELFLTKSF; listed as Homo sapiens) [compound 103]
- Peptide Presentation on cancer entities [2]: HNSCC, NSCLCsquam
- Gene Expression in tumor samples: highly over-expressed (++) [1]: HNSCC, NSCLCsquam, OSCAR
- Gene Expression in tumor samples: over-expressed (+) [1]: NSCLCadeno, UBC

Substance: 205: peptide found in ADAMTS12 (gene looked up) (MEIEGAGNFL; listed as Homo sapiens) [compound 205]
- Gene Expression in tumor samples: highly over-expressed (++) [1]: CCC, GBC
- Gene Expression in tumor samples: over-expressed (+) [1]: BRCA, CRC, GC, HNSCC, MEL, NSCLCadeno, NSCLCother, NSCLCsquam, OSCAR, PACA, SCLC, UBC

Substance: 32: peptide found in FLT3 (gene looked up) (REYEYDLKW; listed as Homo sapiens) [compound 32]
- Peptide Presentation on cancer entities [2]: AML
- Gene Expression in tumor samples: highly over-expressed (++) [1]: AML

Substance: 237: peptide found in ROS1 (gene looked up) (QEIGQKTSV; listed as Homo sapiens) [compound 237]
- Peptide Presentation on cancer entities [2]: MEL
- Gene Expression in tumor samples: highly over-expressed (++) [1]: NSCLCadeno
- Gene Expression in tumor samples: over-expressed (+) [1]: NSCLCother, NSCLCsquam

Substance: 98: peptide found in PGR (gene looked up) (SEESAGPLL; listed as Homo sapiens) [compound 98]
- Peptide Presentation on cancer entities [2]: BRCA
- Gene Expression in tumor samples: highly over-expressed (++) [1]: UEC
- Gene Expression in tumor samples: over-expressed (+) [1]: BRCA

Substance: 119: peptide found in LOXL4 (gene looked up) (VEVKYEGHW; listed as Homo sapiens) [compound 119]
- Gene Expression in tumor samples: highly over-expressed (++) [1]: MEL
- Gene Expression in tumor samples: over-expressed (+) [1]: CCC

Substance: 215: peptide found in GPR143 (gene looked up) (SAMWIQLLY; listed as Homo sapiens) [compound 215]
- Peptide Presentation on cancer entities [2]: MEL
- Gene Expression in tumor samples: highly over-expressed (++) [1]: MEL

Substance: 186: peptide found in DNTT (gene looked up) (EEIFAHLGL; listed as Homo sapiens) [compound 186]
- Peptide Presentation on cancer entities [2]: AML
- Gene Expression in tumor samples: highly over-expressed (++) [1]: AML

Substance: 161: peptide found in DNTT (gene looked up) (GESSEVKAVL; listed as Homo sapiens) [compound 161]
- Peptide Presentation on cancer entities [2]: AML
- Gene Expression in tumor samples: highly over-expressed (++) [1]: AML

Substance: 259: peptide found in APOB (gene looked up) (IEVSSPITLQAL; listed as Homo sapiens) [compound 259]
- Peptide Presentation on cancer entities [2]: CCC, NSCLCadeno, OC
- Gene Expression in tumor samples: highly over-expressed (++) [1]: HCC

Substance: 419: peptide found in ACP3 (gene looked up) (SELSLLSLY; listed as Homo sapiens) [compound 419]
- Peptide Presentation on cancer entities [2]: PRCA
- Gene Expression in tumor samples: very highly over-expressed (+++) [1]: PRCA

Substance: 202: peptide found in GRP (gene looked up) (RELPLVLLA; listed as Homo sapiens) [compound 202]
- Gene Expression in tumor samples: highly over-expressed (++) [1]: SCLC

Substance: 126: peptide found in PGR (gene looked up) (SEASQSPQY; listed as Homo sapiens) [compound 126]
- Peptide Presentation on cancer entities [2]: UEC
- Gene Expression in tumor samples: highly over-expressed (++) [1]: UEC

Substance: 393: peptide found in NUP155 (gene looked up) (SETILAVGL; listed as Homo sapiens) [compound 393]
- Peptide Presentation on cancer entities [2]: BRCA, CLL, HCC, NSCLCsquam
- Gene Expression in tumor samples: over-expressed (+) [1]: NSCLCother, SCLC

Substance: 398: peptide found in HPGDS (gene looked up) (AEIIRYIF; listed as Homo sapiens) [compound 398]
- Peptide Presentation on cancer entities [2]: AML
- Gene Expression in tumor samples: over-expressed (+) [1]: AML

Substance: 117: peptide found in LOXL4 (gene looked up) (SEVPVDSHY; listed as Homo sapiens) [compound 117]
- Gene Expression in tumor samples: highly over-expressed (++) [1]: MEL
- Gene Expression in tumor samples: over-expressed (+) [1]: CCC

Substance: 120: peptide found in LOXL4 (gene looked up) (VTEGAVEVKY; listed as Homo sapiens) [compound 120]
- Peptide Presentation on cancer entities [2]: AML, BRCA, CRC, NSCLCadeno, OC
- Gene Expression in tumor samples: highly over-expressed (++) [1]: MEL
- Gene Expression in tumor samples: over-expressed (+) [1]: CCC

Substance: 125: peptide found in LOXL4 (gene looked up) (LEVLHQGQW; listed as Homo sapiens) [compound 125]
- Gene Expression in tumor samples: highly over-expressed (++) [1]: MEL
- Gene Expression in tumor samples: over-expressed (+) [1]: CCC

Substance: 170: peptide found in MMP16 (gene looked up) (REMFVFKDQW; listed as Homo sapiens) [compound 170]
- Gene Expression in tumor samples: highly over-expressed (++) [1]: GBM, MEL
- Gene Expression in tumor samples: over-expressed (+) [1]: BRCA

Substance: 89: peptide found in CYP4Z1 (gene looked up) (KEFYPVKEF; listed as Homo sapiens) [compound 89]
- Gene Expression in tumor samples: very highly over-expressed (+++) [1]: BRCA

Substance: 212: peptide found in SIGLEC15 (gene looked up) (SEASVYLFRF; listed as Homo sapiens) [compound 212]
- Gene Expression in tumor samples: highly over-expressed (++) [1]: UBC
- Gene Expression in tumor samples: over-expressed (+) [1]: HCC, MEL, NHL, OC, PACA, UEC

Substance: 390: peptide found in RXFP1 (gene looked up) (GEYNKHAQLW; listed as Homo sapiens) [compound 390]
- Gene Expression in tumor samples: over-expressed (+) [1]: UEC

Substance: 150: peptide found in PTPRZ1 (gene looked up) (SEVFHVSEA; listed as Homo sapiens) [compound 150]
- Gene Expression in tumor samples: highly over-expressed (++) [1]: GBM
